PubChem BioAssay AID504784 – Drosophila RNAi Screening Center | 2011
The screen tested about 17,000 reagents; below is a random part of those that have a named target and a result. 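Each column is one replicate's B-score; the combined score over replicates was not deposited, so single values may mislead.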 Names joined by + are all predicted targets of the reagent.

Assay: 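Fly genes whose silencing alters how much lipid cells keep in droplets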 (primary screen)
Cells: Drosophila Kc167 embryonic cells
Knock-down reagent: long dsRNA against Drosophila genes, about 250 ng dsRNA per well
Timing: 4 days
Conditions: cells fed 400 µM oleic acid bound to BSA
Measured: 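Cells imaged and segmented; ratio of lipid droplet area to nuclear area, log-transformed, then normalised as a B-score over the screen; higher means more stored lipid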
Reading the numbers: droplet/nuclear area B-score: higher = more stored lipid (overstorage)

no.	gene	DRSC id	droplet/nuclear area B-score, replicate 1	droplet/nuclear area B-score, replicate 2	droplet/nuclear area B-score, replicate 3
1	Nepl5 (Neprilysin-like 5)	DRSC03241	0.246	-0.193	
2	CG14419	DRSC17916	-1.04	-1.04	
3	CG13229	DRSC06349	0.772	-0.981	
4	CG2909	DRSC18241	-2.66	-1.71	1.51
5	Gr64c (Gustatory receptor 64c)	DRSC08445	0.729	0.669	
6	CG31077	DRSC13805	-1.12	0.0179	
7	CG6793	DRSC10714	-0.544	0.153	
8	CG9933	DRSC03276	0.22	2.16	
9	Nadk1b (NAD kinase 1b)	DRSC06964	-0.79	0.0081	
10	Nadk1b (NAD kinase 1b)	DRSC06965	0.65	0.149	
11	CG8157	DRSC07085	-0.0697	0.429	
12	CG8157	DRSC21595	0.376	-0.0218	
13	CG32687	DRSC18210	0.664	-0.288	-0.547
14	CG32687	DRSC18237	-0.516	0.331	-0.103
15	Dhps (Deoxyhypusine synthase)	DRSC10948	-0.114	0.251	
16	gom (gomdanji)	DRSC04690	-1.15	0.0777	
17	CG30284	DRSC22150	-0.00246	0.44	
18	norpA (no receptor potential A)	DRSC18806	1.59		
19	pea (peanuts)	DRSC07120	2.01	-0.0302	
20	CG12099	DRSC08253	1.4	0.202	
21	Nup54 (Nucleoporin 54kD)	DRSC07282	-0.0811	-0.588	
22	babos	DRSC03923	0.0285	0.355	
23	babos	DRSC04397	-1.51	-0.305	
24	CG33475	DRSC22943	-2.08	-0.779	
25	Taf4 (TBP-associated factor 4)	DRSC11297	0	-0.582	-1.05
26	mRpL37 (mitochondrial ribosomal protein L37)	DRSC16062	1.98	3.61	
27	Crtp (Caldesmon-related protein)	DRSC04604	-3.1	-1.15	
28	Hpf1 (Histone PARylation factor 1)	DRSC12202	0.201	-0.309	
29	CG14316	DRSC14795	1.54	1.6	
30	Capa (Capability)	DRSC15058	-0.000227		
31	Septin5 (Septin 5)	DRSC06843	0.0351	0.124	
32	CG11350	DRSC08181	0.985	-0.617	-0.783
33	CngB (Cyclic nucleotide-gated ion channel subunit B)	DRSC04297	-3.1	0.821	
34	CG15767	DRSC18073	0.82		
35	wat (waterproof)	DRSC14854	0.48	-1.12	
36	CG4962	DRSC10464	0.418	1.82	
37	CG6753	DRSC16108	-0.235	-1	
38	CG14573	DRSC11734	0.515	0.953	
39	HINT1 (histidine triad nucleotide binding protein 1)	DRSC00548	-1.27	1.28	
40	ND-13B (NADH dehydrogenase (ubiquinone) 13 kDa B subunit)	DRSC10643	1.85	0.864	
41	CG12432 (retired record)	DRSC19455	0.482	0.00932	
42	CCDC53 (Coiled-coil domain containing 53)	DRSC03056	-1.36	-0.0074	
43	Top3beta (Topoisomerase 3beta)	DRSC18724	1.4	-1.54	0.00638
44	CG14990	DRSC08449	0.757	-0.135	
45	Obp19c (Odorant-binding protein 19c)	DRSC20528	0.725	0.00535	
46	Dhfr (Dihydrofolate reductase)	DRSC16646	-0.246	1.07	
47	Bbd (Bombardier)	DRSC06709	0.0906	-0.691	
48	Shawn + Tyler	DRSC19564	-0.319	0.827	
49	Shawn + Tyler	DRSC19565	-1.68	-2.84	
50	CG15641	DRSC19677	-0.375	-0.596	
51	CG9667	DRSC16535	-0.0598	0.586	
52	jub (Ajuba LIM protein)	DRSC19367	2.4	-0.418	1.47
53	RfC3 (Replication factor C subunit 3)	DRSC03411	-0.209	0.00637	
54	Inx6 (Innexin 6)	DRSC20579	1.68	-0.0752	
55	CG11566 (retired record) + stg1	DRSC20473	0.483	0.387	
56	CG11566 (retired record) + stg1	DRSC20481	0.69	-0.00274	
57	CG11566 (retired record) + stg1	DRSC20482	-1.21	-0.793	
58	CG11566 (retired record) + stg1	DRSC20483	-0.487	-0.363	
59	CG32365	DRSC10040	0.455	0.625	
60	CG32365	DRSC10041	-1.6	-0.118	
61	CG32365	DRSC10977	0.0111	0.405	
62	Fnta (Farnesyl transferase alpha subunit)	DRSC00557	-0.0329	1.51	
63	dap (dacapo)	DRSC07601	0.54	1.09	
64	aay (astray)	DRSC11320	0.0442	-0.1	
65	Nup62 (Nucleoporin 62kD)	DRSC06970	-2.33	-1.34	
66	CG4074	DRSC11752	0.683	1.34	
67	CG1631	DRSC20535	0.303	-0.859	
68	CG32523	DRSC20510	-0.041	-0.0101	
69	CG15876	DRSC08484	-2.42	-2.77	
70	CLIP-190 (Cytoplasmic linker protein 190)	DRSC03283	0.123	-0.842	
71	Ada (Adenosine deaminase)	DRSC14463	1.99	1.55	
72	Ref2 (RNA and export factor binding protein 2)	DRSC02563	-2.12	-1.46	
73	Acsf2 (Acyl-CoA synthetase family member 2)	DRSC02172	0.138	-0.547	
74	CG17598	DRSC20636	0.0196	0.274	
75	CG10435	DRSC14246	-1.66	-0.233	
76	CG7912	DRSC16343	-0.478	1.04	
77	Pli (Pellino)	DRSC16792	-2.06	0.156	
78	KFase (Kynurenine formamidase)	DRSC03258	1.03	-0.927	
79	MED6 (Mediator complex subunit 6)	DRSC16500	3.05	6.64	
80	su(w[a]) (suppressor of white-apricot)	DRSC18840	-0.0412		
81	Gos28 (Golgi SNARE, 28 kDa)	DRSC16292	-0.345	-0.863	
82	Gos28 (Golgi SNARE, 28 kDa)	DRSC22859	-0.409	-0.706	
83	mip120 (Myb-interacting protein 120)	DRSC06960	0.907	0.942	
